These are yes or no findings as the source states them, for the method shown. Some results given as binding are weak or reduced against the parent protein; the word gives no strength.
Target: T1, recombinant human cardiac troponin T (human, UniProt P45379 2-298)
T1 construct: In the ECL assay the cTnT came from the Troponin T hs CalSet calibrator; also called cTnT; TnT
Assay: SPR kinetics, compared with mutants 9, 17 and 19

B1: anti-cTnT Fab mutant 12 (Y34I, F60W, Y104F) (Fab, V domains shown)
VH: EVQLQQSGPELVKPGASVKMSCKASGYTFTDYIMKWVKQSHGKSLEWIGDINPNNGETWYNQKFKDKATLTVDKSSSTAYMQLNSLTSEDSAVYYCATRVFDFWGQGTTLTVSS
VL: DIVLTQSPASLAVSLGQRATISCKASQSVDYDGTSYMNWFQQKAGQPPKRLIYAASNLESGIPARFSGRGSGTDFALNIHPVEEEDAATYYCQQSNEDPYTFGGGTKLEIK
notes: also called combination 12; combination "12"
  binding: binds
